The whole screen tested about 400,000 compounds, of which about 3,700 (0.93%) were called active. The shares of active, inactive and inconclusive entries below differ from those in the screen. Calls follow the shape of the dose curve; as a rule, active = well fitted inhibition curve with a large enough effect; inconclusive = small, poorly fitted or top-dose-only effect, or another doubt; inactive = no such curve, though single readings can be large or run the other way. Potencies of inconclusive entries are doubtful fits and often do not repeat.
target: Vitamin D3 receptor (Homo sapiens) (UniProt P11473); experiment: Inhibitors of the vitamin D receptor (VDR): qHTS; conditions: VDR-SRC2-3 peptide fluorescence polarization, 2 h; max response, negative = inhibition: stronger effect = lower value
Procedure, shortened: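 Signal is fluorescence polarization, reporting how far test compounds block the interaction of VDR with the SRC2-3 coregulator peptide after a 2 h room-temperature incubation.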
% is scaled to controls: 0 for no effect and ±100 for the full control effect; potency is read from the fitted curve at half-maximal effect.

Chains of the proteins cited; added tags and fusions are not shown. Lines headed by an entry give the natural chain unless they say otherwise; changes in a name come on top.
UniProt P11473: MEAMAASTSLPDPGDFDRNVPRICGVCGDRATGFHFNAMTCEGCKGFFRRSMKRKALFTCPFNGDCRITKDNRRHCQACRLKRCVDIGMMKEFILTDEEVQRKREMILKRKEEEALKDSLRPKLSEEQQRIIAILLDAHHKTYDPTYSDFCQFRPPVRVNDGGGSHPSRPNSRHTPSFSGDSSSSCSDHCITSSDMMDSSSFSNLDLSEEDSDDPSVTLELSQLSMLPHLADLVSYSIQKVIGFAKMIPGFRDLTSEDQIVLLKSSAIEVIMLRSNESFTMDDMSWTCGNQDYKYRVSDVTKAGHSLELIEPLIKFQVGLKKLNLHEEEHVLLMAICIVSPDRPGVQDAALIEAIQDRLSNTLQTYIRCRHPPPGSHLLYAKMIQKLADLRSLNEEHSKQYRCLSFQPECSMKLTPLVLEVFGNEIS

SMILES	Potency	max response, negative = inhibition
COc1cc(/C=C\C(=O)N2CCC=CC2=O)cc(OC)c1OC	inconclusive: 8.91 µM [inhibitor, partial curve]	–
CCCCCOC(=O)CSc1nc2c(c(=O)[nH]c(=O)n2C)n1CCc1ccccc1	inconclusive: 89.1 µM [inhibitor, single point]	–
Clc1ccccc1-c1nc(NC2CCNCC2)c2ccccc2n1	active: 39.8 µM	–
COc1ccccc1NC(=O)CC(=O)c1ccccc1	inconclusive: 31.6 µM [inhibitor, single point]	–
CC(C)(C)c1cc(=O)n2[nH]c(N)nc2n1	–	inactive: 9.66%
CCn1c(=O)c2cc(C(=O)N3CCN(c4cccc(Cl)c4)CC3)sc2c2ccccc21	–	inactive: -7.62%
Cc1ccc(Cn2c(C3CCCN3c3nc(-c4ccc(F)cc4)cs3)nc3cc(C(=O)NCCCO)ccc32)cc1 (centres undefined)	inconclusive: 70.8 µM [inhibitor, partial curve, poor fit]	–
O=C(O)CN1C(=O)/C(=C\c2ccccc2OCc2ccc(Cl)cc2)SC1=S	inconclusive: 56.2 µM [inhibitor, partial curve, poor fit]	–
CC(C)c1ccc(NC(=O)CSC2=Nc3ccccc3C3=NC(CC(=O)NCc4ccc(F)cc4)C(=O)N23)cc1 (centres undefined)	–	inactive: 6.28%
O=C(CCCC(=O)NCCc1ccccc1)NCCc1ccccc1	inconclusive: 56.2 µM [inhibitor, partial curve, poor fit]	–
COc1ccc(C=NNc2ccc(S(=O)(=O)Nc3ccccc3C(=O)O)cc2[N+](=O)[O-])c(OC)c1	active: 89.1 µM	–
Oc1ccc(Cl)c2cccnc12	inconclusive: 100 µM [inhibitor, single point]	–
CC1(C)CC(=O)C2=C(C1)N=C1SCCC(=O)N1C2c1ccccc1 (centres undefined)	inconclusive: 3.16 µM [inhibitor, full curve, poor fit]	–
O=C1c2cc(O)c(O)cc2OC(c2ccc(O)c(O)c2)C1O (centres undefined)	–	inactive: 8.02%
FC(F)(F)c1ccc(C2[C@H]3CN(Cc4cccnc4)[C@H](c4ccccc4)C34CC2(c2cccnc2)C4)cc1 (some centres undefined)	inconclusive: 63.1 µM [inhibitor, partial curve, poor fit]	–
COc1ccc(S(=O)(=O)CC(=O)c2cc3cc(Br)ccc3oc2=O)cc1	inconclusive: 39.8 µM [inhibitor, partial curve, poor fit]	–
CC(C)c1ccccc1NC(=O)COC(=O)Cc1cccc(C(F)(F)F)c1	inconclusive: 56.2 µM [inhibitor, partial curve, poor fit]	–
O=C(c1nnsc1S(=O)(=O)c1ccc(Cl)cc1)N1CCOCC1	inconclusive: 89.1 µM [inhibitor, single point]	–
Cc1ccc(SC[C@H](Cc2ccccc2)N2CCN(CC(C)C)CCC2=O)cc1	–	inactive: -23.8%
CC(C)Oc1cccc(C(=O)N/N=C/c2coc3ccccc3c2=O)c1	inconclusive: 17.8 µM [inhibitor, full curve, poor fit]	–

SMILES	Potency	max response, negative = inhibition
CCOc1ccc2nc(N3CCC(C(=O)N4CCN(c5ccccn5)CC4)CC3)sc2c1	inconclusive: 5.62 µM [inhibitor, full curve, poor fit]	–
CCOc1ccc(N2C(=O)/C(=C\c3ccc(OC)c(O)c3)S(=O)(=O)C2c2cccc([N+](=O)[O-])c2)cc1 (centres undefined)	inconclusive: 28.2 µM [inhibitor, partial curve]	–
CCc1ccccc1N(CC(=O)NCC1CCCO1)C(=O)CCC(=O)Nc1nccs1 (centres undefined)	inconclusive: 56.2 µM [inhibitor, partial curve, poor fit]	–
O=C1N=c2ccccc2=C1c1c(O)n(-c2cccc(F)c2)[nH]c1=O	active: 70.8 µM	–
COC(=O)c1ccccc1NC(=S)NC(=O)c1cccc2ccccc12	inconclusive: 10 µM [inhibitor, single point]	–
COc1ccccc1C(c1nnnn1C(C)(C)C)N1CCCCCC1 (centres undefined)	inconclusive: 63.1 µM [inhibitor, partial curve, poor fit]	–
Cc1ccccc1-c1cc(N(C)C)ncn1	inconclusive: 50.1 µM [inhibitor, partial curve]	–
COCCCNC(=O)Cn1c(=O)n(CCCCCC(=O)NCc2ccc3c(c2)OCO3)c(=O)c2sccc21	inconclusive: 44.7 µM [inhibitor, partial curve]	–
O=C(NCCCN1CCCC1)c1cc2c(Cl)nc3ccccc3c2s1	–	inactive: -8.85%
COc1cc(/C=C2\SC(=O)N(CC(=O)Nc3ccc(C)cc3)C2=O)cc(Cl)c1OCC(=O)O	inconclusive: 50.1 µM [inhibitor, partial curve, poor fit]	–
CC1CCN(S(=O)(=O)c2ccc(NC(=O)c3ccccc3F)cc2)CC1	inconclusive: 89.1 µM [inhibitor, single point]	–
CC(=O)c1c(C)[nH]c(=S)c(C#N)c1-c1ccc(Cl)cc1	inconclusive: 79.4 µM [inhibitor, single point]	–
COc1ccc(S(=O)(=O)N2CCCCC2)cc1NC(=O)c1cc([N+](=O)[O-])ccc1N1CCOCC1	inconclusive: 89.1 µM [inhibitor, single point]	–
COc1ccc(-n2c(C)cc(/C=N/Nc3nnc(C)n3N)c2C)cc1	inconclusive: 79.4 µM [inhibitor, single point]	–
O=C(O)CCc1ccc(-c2ccc(Br)cc2)o1	inconclusive: 89.1 µM [inhibitor, partial curve, poor fit]	–
CCCCn1c(N)c(N(CC(C)C)C(=O)c2ccc(S(=O)(=O)N3CCCCCC3)cc2)c(=O)[nH]c1=O	inconclusive: 79.4 µM [inhibitor, single point]	–
Cc1ccc(-c2nc3ccccn3c2Nc2c(C)cccc2C)o1	active: 79.4 µM	–
CC1CCc2c(sc3nnn(Cc4ccccc4)c(=O)c23)C1 (centres undefined)	inconclusive: 56.2 µM [inhibitor, partial curve, poor fit]	–
O=C(NCCc1ccccn1)c1cc(-c2ccccc2Cl)nc2ccccc12	inconclusive: 7.08 µM [inhibitor, full curve, poor fit]	–

Single records (already shown):
COc1ccccc1C(c1nnnn1C(C)(C)C)N1CCCCCC1 (centres undefined) in the list: Potency: inconclusive: 63.1 µM [inhibitor, partial curve, poor fit]
O=C1N=c2ccccc2=C1c1c(O)n(-c2cccc(F)c2)[nH]c1=O in the list: Potency: active: 70.8 µM
